The record followed here is article PMC2671169.

This experiment addresses Argonaute 2 (Ago2) (human (endogenous in HEK293)), Q9UKV8. In words: capture of RISC on immobilised oligonucleotides, Western blot; biotinylated 2′ FU, 2′ FC oligonucleotides complementary to the sense or antisense strand of the siRNA on Dynabeads M280, incubated with lysate of siRNA-transfected HEK293 cells (siRNA1 or siRNA-caspase9; with or without cotransfected Flag-TRBP) for 1 h at 25°C; 150 mM NaCl, 0.5% NP-40, 2 mM MgCl2, 2 mM CaCl2, 20 mM Tris pH 7.5; bound proteins blotted …. The note with it: remark: other sources report otherwise. Background: A western blot detects proteins with antibodies after separation by electrophoresis.

No constants are given. Whether binding was seen depends on the method and setting. Some results given as binding are weak or reduced against the parent protein; the word gives no strength.

B1: TAR RNA-binding protein (TRBP), Q15633 1-366 (protein)
chain: MSEEEQGSGTTTGCGLPSIEQMLAANPGKTPISLLQEYGTRIGKTPVYDLLKAEGQAHQPNFTFRVTVGDTSCTGQGPSKKAAKHKAAEVALKHLKGGSMLEPALEDSSSFSPLDSSLPEDIPVFTAAAAATPVPSVVLTRSPPMELQPPVSPQQSECNPVGALQELVVQKGWRLPEYTVTQESGPAHRKEFTMTCRVERFIEIGSGTSKKLAKRNAAAKMLLRVHTVPLDARDGNEVEPDDDHFSIGVGSRLDGLRNRGPGCTWDSLRNSVGEKILSLRSCSLGSLGALGPACCRVLSELSEEQAFHVSYLDIEELSLSGLCQCLVELSTQPATVCHGSATTREAARGEAARRALQYLKIMAGSK
Turning to B1, the binding result was “binds”.
